Counter-ions that a name gives are not always drawn. Among all 1,200 compounds or so, about 50 (4%) showed activity. Cut-off read from the data, not from the text of the source: all actives reach 1.3 or more but so do some inactives. This is one part of the list.
system: Lgr5 (MarsCy1-Lgr5-EGFP, U2OS); experiment: cell-surface Lgr5 expression (SCi1 fluorescence, background-subtracted) relative to WT DMSO (fold of DMSO control); higher = more Lgr5 at the plasma membrane, active = hit call of the paper; conditions: U2OS MarsCy1-Lgr5-EGFP stable; treatment time: overnight; 16 µM; library: Johns Hopkins Clinical Compound Library

cell-surface Lgr5 expression, inactive:
C=CCc1ccc(O)c(OC)c1 [Eugenol] 0.969
CC(=O)OCC(=O)NCCCOc1cccc(CN2CCCCC2)c1 [Roxatidine acetate HCl] 1.13
CCn1cc(C(=O)O)c(=O)c2cc(F)c(N3CCNCC3)nc21 [Enoxacin] 0.912
CO/N=C(\C(=O)N[C@@H]1C(=O)N2C(C(=O)O)=CCS[C@H]12)c1csc(N)n1 [Ceftizoxime] 1.09
CC(C(=O)O)c1cccc(Oc2ccccc2)c1 (stereo not given) [Fenoprofen calcium salt hydrate] 1.15
Oc1ccc(C2CNCCc3c2cc(O)c(O)c3Cl)cc1 (stereo not given) [Fenoldopam] 1.24
C[C@](N)(Cc1ccc(O)cc1)C(=O)O [Metyrosine (L-α-Methyltyrosine)] 1.17
CS(=O)(=O)c1ccc([C@@H](O)[C@@H](CF)NC(=O)C(Cl)Cl)cc1 [Florfenicol] 1.01
CCN(CC)CCCC(C)Nc1ccnc2cc(Cl)ccc12 (stereo not given) [Chloroquine diphosphate salt] 1.53
C[N+](C)(C)CCOP(=O)(O)OP(=O)([O-])OC[C@H]1O[C@@H](n2ccc(N)nc2=O)[C@H](O)[C@@H]1O [Citicoline sodium (Cytidine-5'-diphosphocholine)] 1.07
Nc1ccc(S(=O)(=O)NC(=O)c2ccccc2)cc1 [Sulfabenzamide] 1.2
CCC(=C(CC)c1ccc(O)cc1)c1ccc(O)cc1 [Diethylstilbesterol] 1.29
C1N2CN3CN1CN(C2)C3 [Methenamine mandelate (Hexamethylenetetramine mandelate)] 1.19
C1N2CN3CN1CN(C2)C3 [Methenamine (Hexamethylenetetramine)] 1.15
O=C(O)C1=C[C@@H](O)[C@@H](O)[C@H](O)C1 [Shikimic acid] 1.04
CCCCCN(C)CCC(O)(P(=O)(O)O)P(=O)(O)O [Ibandronate] 0.811
C[n+]1c2cc(N)ccc2cc2ccc(N)cc21.Nc1ccc2cc3ccc(N)cc3nc2c1 [Acriflavine hydrochloride] 1.44
CCCc1cc(C(N)=S)ccn1 [Protionamide] 1.13
C=C1CC[C@H](O)C/C1=C/C=C1\CCC[C@]2(C)[C@@H]([C@H](C)CCCC(C)C)CC[C@@H]12 [Cholecalciferol (Vitamin D3)] 1
C[C@H]1O[C@H](O[C@H]2[C@H](O)[C@@H](O)[C@@H](O[C@H]3[C@H](O)[C@@H](O)C(O)O[C@@H]3CO)O[C@@H]2CO)[C@H](O)[C@@H](O)[C@@H]1N[C@H]1C=C(CO)[C@@H](O)[C@H](O)[C@H]1O (stereo not given in full) [Acarbose] 1.02

Fetched one by one from the list above:
cell-surface Lgr5 expression, inactive:
CS(=O)(=O)c1ccc([C@@H](O)[C@@H](CF)NC(=O)C(Cl)Cl)cc1 [Florfenicol] 1.01
CCN(CC)CCCC(C)Nc1ccnc2cc(Cl)ccc12 (stereo not given) [Chloroquine diphosphate salt] 1.53

— the supplement of paper PMC4683952
